In patent WO2018235964A1:
Substitutions are numbered along the chain they refer to. No constants are given. Whether binding was seen depends on the method and setting. Some binding calls cover weakened binding; strength is not graded here. Each block holds one binder with its values, some of them ahead of it.

By UniProt entry, the sequences of proteins in these tests, tags left out. Residues count along the entry.
UniProt P01137, residues 279-390: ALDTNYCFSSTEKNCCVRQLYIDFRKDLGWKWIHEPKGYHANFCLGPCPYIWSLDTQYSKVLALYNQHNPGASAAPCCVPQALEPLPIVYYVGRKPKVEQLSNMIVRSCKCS

How the values were obtained:
TGF-β1 protein (human) [1] = target: TGF-β1 protein (human) (UniProt P01137); test: indirect ELISA, hybridoma supernatant on TGF-β1 protein-coated plates
TGF-β1 protein (human) [2] = target: TGF-β1 protein (human) (UniProt P01137); test: western blot on lysate of TGF-β1 overexpressing cells or tissue, 5x diluted hybridoma supernatant

binding (TGF-β1 protein (human) [1]): binds
binding (TGF-β1 protein (human) [2]): binds
B1: mouse anti-human active TGF-β1 antibody clone 4D10 (antibody, IgG1, V domains shown)
VH: EVKLQQSGTVLARPGTSVKMSCKASGYTFSNYWMHWVKQRPGQGLEWIGAIYPGNSDTRFNQKFKGKAKLTAVTSASTAYMDLSSLTDEDSAVYYCTGYSNYEAGAMDYWGQGTSVTVSS
VL: DIVMTQSPSSRAVSSGEKVTMSCKSSQSLLNSRTRKNYLAWYQQKPGQSLKLLIYWASTRESGVPDRFTGSGSGTDFTLTISGVQAEDLAVYYCQQSYHLPTFGGGTKLEIKR

binding (TGF-β1 protein (human) [1]): binds
binding (TGF-β1 protein (human) [2]): binds
B2: mouse anti-human active TGF-β1 antibody clone 2H4 (antibody, IgG1, V domains shown)
VH: B1 VH
VL: B1 VL with R11L, L50P
